The text below walks through data of doi:10.1101/2024.01.10.574988.

The chains behind the UniProt entries cited, without tags or fusion partners. Where a name states a change or a piece, a line headed by the entry shows the natural chain unless it says otherwise. Residues count along the entry.
UniProt Q07954, residues 4445-4544: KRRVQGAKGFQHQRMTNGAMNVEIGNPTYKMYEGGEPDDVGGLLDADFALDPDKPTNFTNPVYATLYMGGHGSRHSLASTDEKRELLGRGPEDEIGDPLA
UniProt Q15036: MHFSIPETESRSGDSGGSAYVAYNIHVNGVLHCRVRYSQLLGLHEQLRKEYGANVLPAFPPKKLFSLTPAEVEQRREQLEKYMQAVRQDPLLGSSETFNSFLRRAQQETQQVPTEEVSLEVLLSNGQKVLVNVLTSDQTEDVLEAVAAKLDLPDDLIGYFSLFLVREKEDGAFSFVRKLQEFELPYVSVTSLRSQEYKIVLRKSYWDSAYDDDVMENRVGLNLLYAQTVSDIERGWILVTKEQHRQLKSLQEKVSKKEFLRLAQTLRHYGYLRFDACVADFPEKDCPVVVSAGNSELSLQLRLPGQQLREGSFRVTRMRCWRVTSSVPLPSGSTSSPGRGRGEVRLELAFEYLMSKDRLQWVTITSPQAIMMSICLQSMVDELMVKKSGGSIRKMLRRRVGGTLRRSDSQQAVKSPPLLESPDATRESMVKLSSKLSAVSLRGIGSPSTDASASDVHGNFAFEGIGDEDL

The target in this test is GST-fusion of the cytoplasmic tail of LRP1 (human) (UniProt Q07954). In words: pull-down.

These are yes or no findings as the source states them, for the method shown. Binding can be weak; no strength is given.

Regarding “SNX17ΔC (residue 1-390) with an intramolecular decaHis tag (from UniProt Q15036) (domain or fragment)”, the binding entry is listed as “binds”.
